Results as given in US9289365B2, “Compositions and methods for stimulating collagen synthesis in the skin” (Avon Products, Inc., priority 2011, dated 2016).
At least one compound was matched to its structure with a doubt left. Some compounds share one wording; it may come from a single statement.

System: Human dermal fibroblasts
Assay: Stimulation of collagen synthesis in human dermal fibroblasts, procollagen type I C-peptide (PIP) EIA
Format: cell-based
Details: summary statement on Tables 1 and 2; 0.0005%, 48-hour incubation
Procedure: The compounds 1-5, and 8-9 were assayed for stimulation of collagen synthesis as follows. Human dermal fibroblasts (Cascade Biologics, Portland, Oreg.) were plated at 10,000 cells/well in 96-well culture plates in supplemented medium (DMEM, 10% Fetal Bovine Serum, 1% Penicillin/Streptomycin and 1% L-Glutamine) overnight in humidified atmosphere of 10% CO2 at 37° C. The next day, the medium was replaced with fresh medium (DMEM, 1% Penicillin/Streptomycin and 1% L-Glutamine) and the compounds dissolved DMSO were added to the wells in triplicate at a concentration of 0.0005%, DMSO solution was used a control. Following 48-hour incubation, the plates were removed from the incubator and the medium from each well was collected for the procollagen assay.
Collagen production was measured using procollagen type I C-peptide (PIP) EIA kit (Takara Bio, Inc., Japan). Briefly, the conditioned medium was diluted 1:10 in Sample Diluent, 20 μl of diluted conditioned medium and 100 μl of antibody-POD conjugate solution were added to the wells of the Takara HASA plate. The ELISA plate was incubated at 37° C. for 3 hours before the wells were washed four times with 400 μl of 1×PBS. […] The absorbance was measured on a spectrophotometer at 450 nm wavelength. The amount of procollagen peptide in the conditioned medium was calculated from the standard curve. […]

Cc1ccccc1N1CCN(C(=O)c2cc(-c3ccccc3)nn2-c2ccc(Cl)c(Cl)c2)CC1 [Compound 8]
Stimulation of collagen synthesis (result in words): potent stimulators of collagen synthesis

Cc1ccccc1N1CCN(C(=O)c2cc(-c3cccn3C)nn2-c2ccccc2Cl)CC1 [Compound 9]
Stimulation of collagen synthesis (result in words): potent stimulators of collagen synthesis
